From article PMC7140707

B1: NMA2 (protein, UniProt P53204 1-395)
chain: MDPTKAPDFKPPQPNEELQPPPDPTHTIPKSGPIVPYVLADYNSSIDAPFNLDIYKTLSSRKKNANSSNRMDHIPLNTSDFQPLSRDVSSEEESEGQSNGIDATLQDVTMTGNLGVLKSQIADLEEVPHTIVRQARTIEDYEFPVHRLTKKLQDPEKLPLIIVACGSFSPITYLHLRMFEMALDDINEQTRFEVVGGYFSPVSDNYQKRGLAPAYHRVRMCELACERTSSWLMVDAWESLQSSYTRTAKVLDHFNHEINIKRGGIMTVDGEKMGVKIMLLAGGDLIESMGEPHVWADSDLHHILGNYGCLIVERTGSDVRSFLLSHDIMYEHRRNILIIKQLIYNDISSTKVRLFIRRGMSVQYLLPNSVIRYIQEYNLYINQSEPVKQVLDSKE
B2: OLE1 (protein, UniProt P21147 1-510)
chain: MPTSGTTIELIDDQFPKDDSASSGIVDEVDLTEANILATGLNKKAPRIVNGFGSLMGSKEMVSVEFDKKGNEKKSNLDRLLEKDNQEKEEAKTKIHISEQPWTLNNWHQHLNWLNMVLVCGMPMIGWYFALSGKVPLHLNVFLFSVFYYAVGGVSITAGYHRLWSHRSYSAHWPLRLFYAIFGCASVEGSAKWWGHSHRIHHRYTDTLRDPYDARRGLWYSHMGWMLLKPNPKYKARADITDMTDDWTIRFQHRHYILLMLLTAFVIPTLICGYFFNDYMGGLIYAGFIRVFVIQQATFCINSLAHYIGTQPFDDRRTPRDNWITAIVTFGEGYHNFHHEFPTDYRNAIKWYQYDPTKVIIYLTSLVGLAYDLKKFSQNAIEEALIQQEQKKINKKKAKINWGPVLTDLPMWDKQTFLAKSKENKGLVIISGIVHDVSGYISEHPGGETLIKTALGKDATKAFSGGVYRHSNAAQNVLADMRVAVIKESKNSAIRMASKRGEIYETGKFF
B3: RPT1 (protein, UniProt P33299 1-467)
chain: MPPKEDWEKYKAPLEDDDKKPDDDKIVPLTEGDIQVLKSYGAAPYAAKLKQTENDLKDIEARIKEKAGVKESDTGLAPSHLWDIMGDRQRLGEEHPLQVARCTKIIKGNGESDETTTDNNNSGNSNSNSNQQSTDADEDDEDAKYVINLKQIAKFVVGLGERVSPTDIEEGMRVGVDRSKYNIELPLPPRIDPSVTMMTVEEKPDVTYSDVGGCKDQIEKLREVVELPLLSPERFATLGIDPPKGILLYGPPGTGKTLCARAVANRTDATFIRVIGSELVQKYVGEGARMVRELFEMARTKKACIIFFDEIDAVGGARFDDGAGGDNEVQRTMLELITQLDGFDPRGNIKVMFATNRPNTLDPALLRPGRIDRKVEFSLPDLEGRANIFRIHSKSMSVERGIRWELISRLCPNSTGAELRSVCTEAGMFAIRARRKVATEKDFLKAVDKVISGYKKFSSTSRYMQYN
B4: ERG6 (protein, UniProt P25087 1-383)
chain: MSETELRKRQAQFTRELHGDDIGKKTGLSALMSKNNSAQKEAVQKYLRNWDGRTDKDAEERRLEDYNEATHSYYNVVTDFYEYGWGSSFHFSRFYKGESFAASIARHEHYLAYKAGIQRGDLVLDVGCGVGGPAREIARFTGCNVIGLNNNDYQIAKAKYYAKKYNLSDQMDFVKGDFMKMDFEENTFDKVYAIEATCHAPKLEGVYSEIYKVLKPGGTFAVYEWVMTDKYDENNPEHRKIAYEIELGDGIPKMFHVDVARKALKNCGFEVLVSEDLADNDDEIPWYYPLTGEWKYVQNLANLATFFRTSYLGRQFTTAMVTVMEKLGLAPEGSKEVTAALENAAVGLVAGGKSKLFTPMMLFVARKPENAETPSQTSQEATQ
B5: MOT3 (protein, UniProt P54785 1-490)
chain: MNADHHLQQQQQQRQQHQQQQHQQQQHQHQHQQQQHTILQNVSNTNNIGSDSLASQPFNTTTVSSNKDDVMVNSGARELPMPLHQQQYIYPYYQYTSNNSNNNNVTAGNNMSASPIVHNNSNNSNNSNISASDYTVANNSTSNNNNNNNNNNNNNNNIHPNQFTAAANMNSNAAAAAYYSFPTANMPIPQQDQQYMFNPASYISHYYSAVNSNNNGNNAANNGSNNSSHSAPAPAPGPPHHHHHHSNTHNNLNNGGAVNTNNAPQHHPTIITDQFQFQLQQNPSPNLNLNINPAQPLHLPPGWKINTMPQPRPTTAPNHPPAPVPSSNPVASNLVPAPSSDHKYIHQCQFCEKSFKRKSWLKRHLLSHSQQRHFLCPWCLSRQKRKDNLLQHMKLKHTNYLLDELKKNNIIFNYNNSSSSNNNNDNNNNNNSNSASGSGGAGAAAAAATAPENEDGNGYDTNIKTLINDGVLNKDDVKRVLNNLIVSHNK
B6: PAL2 (protein, UniProt P38809 1-366)
chain: MNQTGRTIGGPQNGVNTVINPFRVSPSEDRVSSRDETPRNYNNPFLNEDDTRRAHNSSVSNSRQERLPSYEEAAGTPKQQAPYPKEKKRSSGSNSHQHNHHHHRRTSHGHRDKDKQKSKSRTKVKPPKNVDTIDKMDVTGLFGGSFHHDGPFDACTPQRNKNNKVAPVLAFPADGPNNTVGGRTSKKSTLDEVFGRETVDDDSETLNQLQDRAYLFNKANSSTTTLDAIKPNSKNITQFDSKMKTELVHGPITMGLGSTTFLDGAPASSAAIEQDVINHAQESRRKNSIARKKSLPSRRHLQVNNNNLKLVKTHSGHLEQKDVDDNRTSVPVTATQGSGHEDVVKKENTGNKLLRRVKSLKTSKKH
B7: IST2 (protein, UniProt P38250 1-946)
chain: MSQTITSLDPNCVIVFNKTSSANEKSLNVEFKRLNIHSIIEPGHDLQTSYAFIRIHQDNAKPLFSFLQNLDFIESIIPYHDTELSDDLHKLISISKSKILEAPKQYELYNLSNLTNNPKQSLYFAFLQNYIKWLIPFSFFGLSIRFLSNFTYEFNSTYSLFAILWTLSFTAFWLYKYEPFWSDRLSKYSSFSTIEFLQDKQKAQKKASSVIMLKKCCFIPVALLFGAILLSFQLYCFALEIFIKQIYNGPMISILSFLPTILICTFTPVLTVIYNKYFVEPMTKWENHSSVVNAKKSKEAKNFVIIFLSSYVPLLITLFLYLPMGHLLTAEIRTKVFNAFSILARLPTHDSDFIIDTKRYEDQFFYFIVINQLIQFSMENFVPSLVSIAQQKINGPNPNFVKAESEIGKAQLSSSDMKIWSKVKSYQTDPWGATFDLDANFKKLLLQFGYLVMFSTIWPLAPFICLIVNLIVYQVDLRKAVLYSKPEYFPFPIYDKPSSVSNTQKLTVGLWNSVLVMFSILGCVITATLTYMYQSCNIPGVGAHTSIHTNKAWYLANPINHSWINIVLYAVFIEHVSVAIFFLFSSILKSSHDDVANGIVPKHVVNVQNPPKQEVFEKIPSPEFNSNNEKELVQRKGSANEKLHQELGEKQPASSANGYEAHAATHANNDPSSLSSASSPSLSSSSSSSKTGVVKAVDNDTAGSAGKKPLATESTEKRNSLVKVPTVGSYGVAGATLPETIPTSKNYYLRFDEDGKSIRDAKSSAESSNATNNNTLGTESKLLPDGDAVDALSRKIDQIPKIAVTGGENNENTQAKDDAATKTPLIKDANIKPVVNAAVNDNQSKVSVATEQTKKTEVSTKNGPSRSISTKETKDSARPSNNNTTTTTTTDATQPHHHHHHHRHRDAGVKNVTNNSKTTESSSSSSAAKEKPKHKKGLLHKLKKKL
B8: OPY1 (protein, UniProt P38271 1-328)
chain: MIAGATAPSSQHEILIASNLIKKPSTSQNKTPTAQSSSGNNGAADGAPQGYHHHHHHHRHLWWPRTTDHQYWCVLRKNQFAYYKTRDEREAISVIPRFDILNFKISELDGILTVYTPSKDLIFKFPRGQNEKVGMELMHNWKIALEKFLSSPSGNESVTTGSDYDEEEDDDDLIVVDEKAGPSSSKHSCSLTMDEQLSREDKEFYRMFDPRNAEHQVCSGILYTKVKKKKLFNRAKWQKFNVELTNTSFNLYSFKTGKLKKSIKLDKIIDCIELDNNSKMKNDDTNFALITFDERLSFKAANDQDMVDWIINFKSGILIRKKLKAENI
B9: NMA1 (protein, UniProt Q06178 1-401)
chain: MDPTRAPDFKPPSADEELIPPPDPESKIPKSIPIIPYVLADANSSIDAPFNIKRKKKHPKHHHHHHHSRKEGNDKKHQHIPLNQDDFQPLSAEVSSEDDDADFRSKERYGSDSTTESETRGVQKYQIADLEEVPHGIVRQARTLEDYEFPSHRLSKKLLDPNKLPLVIVACGSFSPITYLHLRMFEMALDAISEQTRFEVIGGYYSPVSDNYQKQGLAPSYHRVRMCELACERTSSWLMVDAWESLQPSYTRTAKVLDHFNHEINIKRGGVATVTGEKIGVKIMLLAGGDLIESMGEPNVWADADLHHILGNYGCLIVERTGSDVRSFLLSHDIMYEHRRNILIIKQLIYNDISSTKVRLFIRRAMSVQYLLPNSVIRYIQEHRLYVDQTEPVKQVLGNKE
B10: RTK1 (protein, UniProt Q12100 1-620)
chain: MVKETPLHSSSSTSLSSLFRPTKLKNLSAKIFNGGGNQSYSKTDDVSRSSSRSSKKNTDSDQEDQIKYNKPNDRRSTIGKSPQGNGALSKESHVVASSTLTGISPTSAKKAPIDYSPSRPLPNNHNPVRTGHTVPHLPHSIHNPINYIHQGSKDAFHHPHPVRSTAHSNISTVSSAKSDTPSSNLSYQAHMHPVEILQKQIEDKHFMDSQASTPGSVELQHNSSSGSDDTSSRKKKSLRLTRFFKKIHNDYHDNHHHHHHHNRGSTPTKPKLNLNTNENIVESNGKALYETDNPVELLEKYGIPGRKLGEGASGSVSVVERTDGKLFACKMFRKPHLNNEGTNQSQLANYSKKVTTEFCIGSTLHHENIVETLDMLTEGDTYLLVMEYAPYDFFNLVMSNLMTQDEVNCYFKQLCHGVNYLHSMGLAHRDLKLDNCVVTKDGILKLIDFGSAVVFQYPYEDTIVKSHGIVGSDPYLAPELLKQTSYDPRVADVWSIAIIFYCMVLKRFPWKAPKKSFNSFRLFTEEPEDEDDIVRGPNKILRLLPRHSRTIIGRMLALEPKQRVLMNDVVKDDWLVSVPSCEVDPTSGDLVEKPKNHKHHLVTEEELNELTKQHGNKDSN

Biological target: T1, His6-Gis1 (yeast (S. cerevisiae)) (UniProt Q03833)
T1 sequence: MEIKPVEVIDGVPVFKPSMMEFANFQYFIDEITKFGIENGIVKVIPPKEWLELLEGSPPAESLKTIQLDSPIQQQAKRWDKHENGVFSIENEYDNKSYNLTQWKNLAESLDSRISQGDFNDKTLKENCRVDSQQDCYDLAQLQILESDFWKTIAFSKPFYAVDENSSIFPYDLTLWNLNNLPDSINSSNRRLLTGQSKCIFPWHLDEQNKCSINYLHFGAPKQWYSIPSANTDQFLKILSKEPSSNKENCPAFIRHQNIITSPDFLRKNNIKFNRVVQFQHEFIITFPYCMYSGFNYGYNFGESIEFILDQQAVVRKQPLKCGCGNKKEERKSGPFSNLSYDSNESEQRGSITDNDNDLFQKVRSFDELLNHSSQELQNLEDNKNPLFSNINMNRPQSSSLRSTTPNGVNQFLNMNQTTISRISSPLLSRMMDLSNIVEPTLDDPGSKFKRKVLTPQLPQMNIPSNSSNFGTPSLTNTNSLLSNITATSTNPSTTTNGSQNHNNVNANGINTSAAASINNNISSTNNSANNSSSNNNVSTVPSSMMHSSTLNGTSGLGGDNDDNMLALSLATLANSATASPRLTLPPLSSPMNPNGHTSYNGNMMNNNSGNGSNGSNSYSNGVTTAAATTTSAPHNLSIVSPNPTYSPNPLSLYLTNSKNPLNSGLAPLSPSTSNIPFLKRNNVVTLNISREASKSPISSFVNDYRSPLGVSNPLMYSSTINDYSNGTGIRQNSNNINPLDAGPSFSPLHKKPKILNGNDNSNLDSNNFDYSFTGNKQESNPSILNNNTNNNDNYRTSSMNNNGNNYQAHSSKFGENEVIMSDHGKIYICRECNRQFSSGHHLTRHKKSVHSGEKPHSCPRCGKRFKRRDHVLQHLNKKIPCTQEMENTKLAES
Test: affinity purification with mass spectrometry; His6-Gis1 pre-bound to a Ni Sepharose 6 Fast Flow column; crude yeast extract (Δgis1 cells grown in air or under hypoxia, Δgis1Δhem1 cells at intermediate or high ALA) loaded, 4 °C, 2 h; eluted complexes separated by SDS-PAGE, bands excised, MS; only the target purified

binding, binds:
B1
B2
B3
B4
B5
B6
B7
B8
B9
B10

Results are given in words; binding and its absence hold for the method and conditions named. Binding seen in cells or lysates may run through a third protein. A yes stands for co-enrichment or nearness to the bait. Other partners may have been found. Where a sequence is shown, tags or fusion partners need not be part of it.
